These results are taken from paper PMC8278236.

The assay has as its target T1, His-tagged NlpI(Δss) (E. coli) (UniProt P0AFB1).
T1 sequence: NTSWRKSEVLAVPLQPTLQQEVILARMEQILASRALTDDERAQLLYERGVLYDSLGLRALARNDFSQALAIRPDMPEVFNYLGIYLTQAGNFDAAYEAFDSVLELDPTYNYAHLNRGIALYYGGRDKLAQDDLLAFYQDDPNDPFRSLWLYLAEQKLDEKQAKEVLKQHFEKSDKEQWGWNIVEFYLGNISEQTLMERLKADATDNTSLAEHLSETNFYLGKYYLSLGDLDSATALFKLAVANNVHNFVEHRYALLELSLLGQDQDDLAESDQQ
Briefly: pull-down; purified His-NlpI(Δss) and the supernatant of cells overexpressing a non-His-tagged PG endopeptidase mixed on TALON metal affinity resin, 4°C, 25 min; buffer A (50 mM Tris-HCl pH 8.0, 200 mM NaCl); three washes; SDS-PAGE with Coomassie staining; control resin with the supernatant only; only the target purified.

No constants are given. Whether binding was seen depends on the method and setting. Binding seen in cells or lysates may run through a third protein. Some results given as binding are weak or reduced against the parent protein; the word gives no strength. Where a sequence is shown, tags or fusion partners need not be part of it.

B1: Non-His-tagged MepS (enzyme, UniProt P0AFV4 27-188)
chain: CSANNTAKNMHPETRAVGSETSSLQASQDEFENLVRNVDVKSRIMDQYADWKGVRYRLGGSTKKGIDCSGFVQRTFREQFGLELPRSTYEQQEMGKSVSRSNLRTGDLVLFRAGSTGRHVGIYIGNNQFVHASTSSGVIISSMNEPYWKKRYNEARRVLSRS
In the case of B1, the binding entry is reported as “binds”.
